Measured values published in paper PMC8978962.

Tested on: CitbHLH2-His
Test: EMSA
Conditions: LightShift Chemiluminescent EMSA kit (Thermo), 1 nM biotin probe, 6% native polyacrylamide gel, binding buffer, pH and temperature not stated, recombinant protein, protein details: His (pET-32a fusion), label: 3' biotin

Row | Sequence | binding result (mutated probe, specificity stated as confirmed) | binding result (1 nM probe, cold probe competition at 50, 200, 500-fold)
1 | TGTTTAAATATTATTGCTACGTGCCGGCGCC (double strand) [CitALMT promoter E-box mutant probe] | no binding | 
2 | TTTAAATATTATCAATTGGTGCCGGCGCC (double strand) [CitALMT promoter E-box probe] |  | binds

For at least one entry, the source does not settle the construct or the ends of the probe. A negative result means that nothing was seen under these conditions. At least one verdict was read from the data and is not stated in words by the source.
